Experimental data: PubChem BioAssay AID504444 (National Center for Advancing Translational Sciences (NCATS), 2011)
In all, about 360,000 compounds went through this assay and about 7,500 (2.1%) were called active. The shares of active, inactive and inconclusive entries below differ from those in the screen. The call rests on the fitted dose curve; in most records, active means well fitted inhibition curve with a large enough effect; inconclusive means small, poorly fitted or top-dose-only effect, or effect the other way; inactive means flat fitted curve, though single readings scatter. Potencies of inconclusive entries are doubtful fits and often do not repeat.

Experiment: Nrf2 qHTS screen for inhibitors; further: nearly all actives have a fitted effect of over 60% in size
Conditions: A549 ARE-Fluc reporter, luciferase luminescence, 18-24 h; activity change, negative = inhibition: at 46 µM (top of the series)
In short: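 Nrf2 activity is the BugLite luminescence, read 15 min after reagent at room temperature, following CellTiter-Fluor cytotoxicity readout (30 min, 37C). Compound titrations were applied for 18-24 h to 5000 A549 ARE_Fluc cells/well in 5% FBS OPTI-MEM.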
On the % scale 0 is the no-effect control and ±100 the full control effect; potency means the concentration at half of the fitted maximal effect.

| SMILES | Potency | activity change, negative = inhibition |
| --- | --- | --- |
| COc1cccc2c1OCC(CN1CCN(Cc3ccccc3)C(CCO)C1)=C2 (configuration not stated) | inconclusive: 9.2 µM [falling, partial curve, poor fit] |  |
| Cn1ncc(Br)c1C(=O)NC1CCCCC1 | inconclusive: 25.9 µM [falling, single point] |  |
| CCCc1sc(N/N=C/c2ccccn2)nc1-c1ccc(F)cc1 | inconclusive: 3.26 µM [falling, full curve] |  |
| COCCNC(=O)c1ccc(-n2c(-c3ccccc3)cc3c2CCC(C)C3)cc1 (configuration not stated) |  | inactive: 6.51% |
| Cc1cc(C)nc(SCc2ccc(C(=O)N/N=C/c3ccccc3C(=O)O)cc2)n1 |  | inactive: 5.47% |
| COc1nc(Nc2nc3ccccc3c(=O)[nH]2)nc2ccc(C)cc12 | inconclusive: 4.11 µM [activator, full curve] |  |
| CC(=O)c1ccc2c(ccc3ccccc32)c1 | inconclusive: 14.6 µM [activator, partial curve] |  |
| COc1ccccc1NS(=O)(=O)c1cc2c3c(c1)CCN3C(=O)CC2 | inconclusive: 8.2 µM [falling, partial curve, poor fit] |  |
| COc1ccc(-c2csc(NC(=O)CN3C(=O)C4CC=CCC4C3=O)n2)cc1OC (configuration not stated) | inconclusive: 20.6 µM [falling, partial curve] |  |
| Cn1c(=O)[nH]c(=O)c2c1nc(Sc1nc3ccccc3s1)n2Cc1ccccc1 | inconclusive: 8.2 µM [falling, single point] |  |
| COC(=O)c1ccc(NC(=O)C2CCN(C(=O)c3cc(OC)c(OC)c(OC)c3)CC2)cc1 |  | inactive: 4.88% |
| CCCn1c(=S)[nH]c2cc(C(=O)N3CCN(c4ccccc4OC)CC3)ccc2c1=O | inconclusive: 25.9 µM [falling, partial curve, poor fit] |  |
| COc1ccc(/C=N/Nc2nc(-c3cccc(S(=O)(=O)N4CCCC4)c3)cs2)c(OC)c1 | inconclusive: 6.51 µM [falling, partial curve, poor fit] |  |
| COc1ccccc1N(CC(=O)N1CCC(C)CC1)S(=O)(=O)c1ccc(C)cc1 |  | inactive: 3.28% |
| Cc1cccc(/C=C/c2nc3ccccc3c(=O)n2Cc2ccccc2)c1 | inconclusive: 29.1 µM [falling, single point] |  |
| COc1cccc(/C=C2/SC(=S)N(CC(=O)Nc3nccs3)C2=O)c1 | inconclusive: 23.1 µM [activator, single point] |  |
| Cc1ccccc1-n1c(SCC(=O)c2cc(C)n(C)c2C)nnc1-c1cccnc1 | inconclusive: 25.9 µM [falling, partial curve, poor fit] |  |
| NS(=O)(=O)c1ccc(N2N=C(c3ccccc3)CC2c2ccccc2)cc1 (configuration not stated) | inconclusive: 25.9 µM [falling, single point] |  |
| CCC(C)(C)C1CCc2nc3ccccc3c(C(=O)OC(C)C(=O)Nc3c(C)n(C)n(-c4ccccc4)c3=O)c2C1 (configuration not stated) | inconclusive: 16.4 µM [falling, single point] |  |
| O=c1c2ccccc2nc(-c2cccs2)n1-c1cccc2ccccc12 | inconclusive: 29.1 µM [falling, single point] |  |
| C/C(=N\NC(=O)c1ccccc1Cl)c1ccccn1 | inconclusive: 6.51 µM [falling, partial curve, poor fit] |  |

| SMILES | Potency | activity change, negative = inhibition |
| --- | --- | --- |
| COc1ccc(CCNC(=O)c2ccc3c(c2)CCN3S(=O)(=O)c2ccccc2)cc1OC | inconclusive: 29.1 µM [falling, single point] |  |
| O=C1/C(=C\c2cccs2)Sc2ccc3ccccc3c21 | inconclusive: 4.61 µM [activator, partial curve] |  |
| Cc1ccc(-c2csc3nnc(SCC(=O)Nc4nsc(-c5ccccc5)n4)n23)cc1 | active: 20.6 µM |  |
| CCCCOC(=O)c1ccc(NC(=S)N2CCN(c3ncc4c(=O)c(C(=O)O)cn(CC)c4n3)CC2)cc1 | inconclusive: 20.6 µM [falling, single point] |  |
| CN1CCC2(CC1)N=C(c1ccc(F)cc1)C(=S)N2C(=O)c1ccc(C(C)(C)C)cc1 | inconclusive: 20.6 µM [falling, partial curve, poor fit] |  |
| Cc1coc2c(C)c3oc(=O)c(CCC(=O)N[C@@H](C)C(=O)N[C@@H](Cc4ccccc4)C(=O)O)c(C)c3cc12 |  | inactive: -1.59% |
| Cc1ccc(-c2nc(=Nc3c(C)cc(C)cc3C)sn2-c2ccccc2)cc1 | active: 23.1 µM |  |
| CNC(=O)/C(C#N)=C/c1c(N(Cc2ccccc2)Cc2ccccc2)nc2ccccn2c1=O | inconclusive: 20.6 µM [falling, partial curve] |  |
| Cc1cc(-c2nc3ncccc3o2)ccc1N | inconclusive: 29.1 µM [activator, single point] |  |
| Cc1ccc(-n2ncc(C(=O)NCc3ccccc3)c2C2CCN(C(=O)OC(C)(C)C)CC2)cc1 | inconclusive: 14.6 µM [falling, partial curve, poor fit] |  |
| NC(=O)C1CCN(CC(O)CSc2ccc(F)cc2)CC1 (configuration not stated) | inconclusive: 16.4 µM [activator, partial curve, poor fit] |  |
| CCOC(=O)CSC1=C(C#N)C(c2ccc(F)cc2)C(C(C)=O)=C(C)N1 (configuration not stated) | inconclusive: 32.6 µM [falling, single point] |  |
| Cc1cc(Nc2cccc(Cl)c2)nc2ccc(NC(=O)Cc3ccc(Cl)cc3)cc12 | active: 23.1 µM |  |
| COc1ccccc1NC(=O)CSc1nnc(C2CCCCC2)n1-c1ccccc1 | inconclusive: 20.6 µM [falling, partial curve, poor fit] |  |
| CC(C)(O)C#Cc1ccc(C(=O)N2CCN(c3ccc([N+](=O)[O-])cc3)CC2)cc1 | inconclusive: 29.1 µM [falling, single point] |  |
| COc1ccc(C2Nc3ccccc3C(=O)N2Cc2ccc(CNC(=O)CO)cc2)cc1COc1ccc(NC(C)=O)cc1 (configuration not stated) |  | inactive: -24.4% |
| c1coc(CNc2nc3ccccc3s2)c1 | inconclusive: 9.2 µM [activator, partial curve] |  |
| CCCCCN(C(=O)CCC(=O)OCc1ccccc1C)c1c(N)n(CCCC)c(=O)[nH]c1=O | inconclusive: 5.17 µM [falling, partial curve, poor fit] |  |
| Cc1ccc(Cl)cc1Nc1sc(C(=O)c2ccc(F)cc2)c(N)c1S(C)(=O)=O | inconclusive: 23.1 µM [falling, single point] |  |
| Cc1cccc(Nc2nc(-c3sc(C)nc3C)cs2)c1 | inconclusive: 29.1 µM [falling, single point] |  |
| CC(C)NC(=O)N(C)C[C@@H]1Oc2ccc(NC(=O)Nc3ccc(C(F)(F)F)cc3)cc2CC(=O)N([C@H](C)CO)C[C@@H]1C | inconclusive: 29.1 µM [falling, single point] |  |

In the list so far, these have fluorine.

| SMILES | Potency | activity change, negative = inhibition |
| --- | --- | --- |
| CCCc1sc(N/N=C/c2ccccn2)nc1-c1ccc(F)cc1 | inconclusive: 3.26 µM [falling, full curve] |  |
| CN1CCC2(CC1)N=C(c1ccc(F)cc1)C(=S)N2C(=O)c1ccc(C(C)(C)C)cc1 | inconclusive: 20.6 µM [falling, partial curve, poor fit] |  |
| NC(=O)C1CCN(CC(O)CSc2ccc(F)cc2)CC1 (configuration not stated) | inconclusive: 16.4 µM [activator, partial curve, poor fit] |  |
| CCOC(=O)CSC1=C(C#N)C(c2ccc(F)cc2)C(C(C)=O)=C(C)N1 (configuration not stated) | inconclusive: 32.6 µM [falling, single point] |  |
| Cc1ccc(Cl)cc1Nc1sc(C(=O)c2ccc(F)cc2)c(N)c1S(C)(=O)=O | inconclusive: 23.1 µM [falling, single point] |  |
| CC(C)NC(=O)N(C)C[C@@H]1Oc2ccc(NC(=O)Nc3ccc(C(F)(F)F)cc3)cc2CC(=O)N([C@H](C)CO)C[C@@H]1C | inconclusive: 29.1 µM [falling, single point] |  |

(list continues)

| SMILES | Potency | activity change, negative = inhibition |
| --- | --- | --- |
| O=C(COc1cccc2cccnc12)N1CCc2ccccc21 | inconclusive: 13 µM [activator, partial curve] |  |
| Cc1cc(C)cc(N(CCC#N)C(=O)CSc2nc3ccccc3c(=O)[nH]2)c1 | inconclusive: 29.1 µM [falling, single point] |  |
| Cc1cccc(NC(=O)COc2ccccc2C(=O)NC(C)c2ccccc2)c1 (configuration not stated) | inconclusive: 29.1 µM [falling, single point] |  |
| Cc1csc(NC(=O)c2ccc(C)o2)n1 | inconclusive: 1.3 µM [activator, partial curve, poor fit] |  |
| C[C@@H](C(=O)Nc1ccc(SC(F)F)cc1)N1C(=O)C2CCCCC2C1=O (some centres not stated) | inconclusive: 29.1 µM [activator, single point] |  |
| CCCCC(=O)O[C@H]1CC[C@H]2[C@@H]3CCc4cc(O)ccc4[C@H]3CC[C@]12C | inconclusive: 29.1 µM [falling, single point] |  |
| CNC(=O)c1oc(-c2ccccc2)nc1C | inconclusive: 0.0517 µM [falling, full curve, poor fit] |  |
| COc1ccc(-n2cc(CNC3CCOCC3)c(-c3cccc(F)c3)n2)cc1 | inconclusive: 23.1 µM [falling, single point] |  |
| N#C/C(=C\c1ccccc1Cl)C(=O)Nc1ccccn1 | inconclusive: 29.1 µM [activator, single point] |  |
| O=C(/C=C/c1ccc2c(c1)OCO2)NC1CCCC1 | inconclusive: 29.1 µM [activator, single point] |  |
| Cn1cnc([N+](=O)[O-])c1Sc1nc(N)nc2c1ncn2Cc1ccccc1 | inconclusive: 14.6 µM [falling, partial curve, poor fit] |  |
| COCCNC(=O)CN(C(=O)c1ccc(N2CCCC2)nc1)c1ccc(F)c(Cl)c1 | inconclusive: 6.51 µM [falling, single point] |  |
| CC(C)(C)N(Cc1ccccc1)C(=O)COC(=O)c1ccccc1SCC(=O)N1CCCC1 | inconclusive: 6.51 µM [falling, partial curve, poor fit] |  |
| O=C(c1ccc(F)cc1F)C1CCN(c2ccc([N+](=O)[O-])cn2)CC1 | active: 23.1 µM |  |
| Cc1ccc(NC(=O)NC2CC(=O)N(c3ccc4c(c3)OCCO4)C2)cc1 (configuration not stated) |  | inactive: -12.1% |
| COc1ccc(-c2nnc(-c3ccc(C)cc3)o2)cc1 | inconclusive: 9.2 µM [activator, partial curve] |  |
| COc1ccccc1OCc1nnc(-c2ccccc2)o1 | inconclusive: 8.2 µM [activator, partial curve] |  |
| Cc1cccc(NC(=O)CNC(=O)COc2ccc(C(=O)c3ccc(F)cc3)cc2)c1C | inconclusive: 13 µM [falling, partial curve, poor fit] |  |
| COc1cccc(/C=N/NC(=O)C[n+]2ccccc2)c1OC | inconclusive: 7.31 µM [activator, partial curve, poor fit] |  |
| CCN(CC)C(=O)C1CCN(S(=O)(=O)c2ccc(-n3cnnn3)cc2)CC1 | inconclusive: 2.06 µM [falling, full curve, poor fit] |  |

Exported bar-delimited: entries from further up.
SMILES | Potency | activity change, negative = inhibition
O=C(COc1cccc2cccnc12)N1CCc2ccccc21 | inconclusive: 13 µM [activator, partial curve] | 
Cc1cc(C)cc(N(CCC#N)C(=O)CSc2nc3ccccc3c(=O)[nH]2)c1 | inconclusive: 29.1 µM [falling, single point] | 
